Measurements taken from publication doi:10.1101/2020.11.24.395475.
For at least one entry, the source does not settle the construct or the ends of the probe. At least one verdict rests on a figure or table, not on a statement of the authors.

By UniProt entry, the sequences of proteins in these tests, tags left out.
UniProt Q9UGN5, whole entry E286R: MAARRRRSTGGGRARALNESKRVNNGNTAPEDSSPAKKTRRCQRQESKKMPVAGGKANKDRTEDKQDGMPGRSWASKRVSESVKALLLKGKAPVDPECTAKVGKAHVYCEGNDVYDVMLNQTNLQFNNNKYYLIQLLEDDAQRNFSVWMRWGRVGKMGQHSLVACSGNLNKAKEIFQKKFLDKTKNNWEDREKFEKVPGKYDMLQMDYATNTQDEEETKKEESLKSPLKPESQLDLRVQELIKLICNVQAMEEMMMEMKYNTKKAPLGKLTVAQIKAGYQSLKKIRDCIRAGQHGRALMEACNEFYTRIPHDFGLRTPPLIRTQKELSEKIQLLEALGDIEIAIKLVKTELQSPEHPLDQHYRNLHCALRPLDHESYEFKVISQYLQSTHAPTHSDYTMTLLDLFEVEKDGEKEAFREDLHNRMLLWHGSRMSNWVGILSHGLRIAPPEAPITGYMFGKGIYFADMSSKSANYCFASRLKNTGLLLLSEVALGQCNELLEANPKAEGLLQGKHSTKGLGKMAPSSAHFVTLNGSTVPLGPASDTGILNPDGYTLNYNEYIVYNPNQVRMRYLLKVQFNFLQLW
UniProt Q9UGN5, whole entry N129A: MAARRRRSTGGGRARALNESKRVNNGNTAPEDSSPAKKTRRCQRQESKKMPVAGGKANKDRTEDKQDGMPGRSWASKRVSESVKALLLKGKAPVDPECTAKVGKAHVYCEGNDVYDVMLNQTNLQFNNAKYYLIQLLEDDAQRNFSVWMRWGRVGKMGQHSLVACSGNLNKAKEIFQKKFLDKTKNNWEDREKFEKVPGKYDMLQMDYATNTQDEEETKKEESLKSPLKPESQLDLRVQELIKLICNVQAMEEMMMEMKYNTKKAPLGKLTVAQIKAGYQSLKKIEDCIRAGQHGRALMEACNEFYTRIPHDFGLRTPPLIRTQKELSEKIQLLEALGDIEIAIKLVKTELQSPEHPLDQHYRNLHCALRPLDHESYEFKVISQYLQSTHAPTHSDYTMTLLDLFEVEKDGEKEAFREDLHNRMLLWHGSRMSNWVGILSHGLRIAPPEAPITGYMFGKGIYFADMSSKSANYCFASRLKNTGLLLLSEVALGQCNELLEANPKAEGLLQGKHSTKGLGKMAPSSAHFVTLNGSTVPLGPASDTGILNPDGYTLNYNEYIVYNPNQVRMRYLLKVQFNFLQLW
UniProt Q9UGN5, whole entry E286A: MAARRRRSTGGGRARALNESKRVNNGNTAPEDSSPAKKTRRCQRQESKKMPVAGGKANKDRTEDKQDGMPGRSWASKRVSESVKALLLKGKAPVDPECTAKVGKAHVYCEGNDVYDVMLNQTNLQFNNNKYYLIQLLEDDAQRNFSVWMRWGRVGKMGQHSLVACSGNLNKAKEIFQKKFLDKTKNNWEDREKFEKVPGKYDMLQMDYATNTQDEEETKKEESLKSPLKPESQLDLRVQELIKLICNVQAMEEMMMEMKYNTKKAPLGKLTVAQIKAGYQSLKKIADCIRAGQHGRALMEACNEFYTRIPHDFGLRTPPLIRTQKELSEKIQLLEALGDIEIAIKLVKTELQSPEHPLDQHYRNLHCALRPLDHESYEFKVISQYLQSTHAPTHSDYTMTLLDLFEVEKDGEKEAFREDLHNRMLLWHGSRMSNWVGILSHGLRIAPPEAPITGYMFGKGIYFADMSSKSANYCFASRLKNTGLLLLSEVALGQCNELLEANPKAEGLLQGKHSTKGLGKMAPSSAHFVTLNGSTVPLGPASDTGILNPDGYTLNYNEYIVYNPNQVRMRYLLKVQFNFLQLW
UniProt Q9UGN5, whole entry Y201F: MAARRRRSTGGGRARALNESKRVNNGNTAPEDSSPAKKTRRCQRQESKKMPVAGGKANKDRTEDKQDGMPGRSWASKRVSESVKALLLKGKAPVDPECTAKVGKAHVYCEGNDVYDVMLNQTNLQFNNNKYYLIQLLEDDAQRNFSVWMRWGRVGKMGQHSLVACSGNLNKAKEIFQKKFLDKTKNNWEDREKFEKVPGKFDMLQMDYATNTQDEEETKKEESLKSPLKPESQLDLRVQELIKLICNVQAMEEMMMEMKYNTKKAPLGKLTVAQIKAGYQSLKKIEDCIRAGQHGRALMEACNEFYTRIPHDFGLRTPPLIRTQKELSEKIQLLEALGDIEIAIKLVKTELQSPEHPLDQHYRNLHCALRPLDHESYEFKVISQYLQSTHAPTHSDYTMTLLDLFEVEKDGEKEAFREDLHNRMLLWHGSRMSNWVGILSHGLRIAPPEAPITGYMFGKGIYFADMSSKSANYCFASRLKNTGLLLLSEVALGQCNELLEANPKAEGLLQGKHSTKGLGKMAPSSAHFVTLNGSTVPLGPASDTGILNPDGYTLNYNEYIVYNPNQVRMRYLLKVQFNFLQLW
UniProt Q9UGN5, whole entry G338A: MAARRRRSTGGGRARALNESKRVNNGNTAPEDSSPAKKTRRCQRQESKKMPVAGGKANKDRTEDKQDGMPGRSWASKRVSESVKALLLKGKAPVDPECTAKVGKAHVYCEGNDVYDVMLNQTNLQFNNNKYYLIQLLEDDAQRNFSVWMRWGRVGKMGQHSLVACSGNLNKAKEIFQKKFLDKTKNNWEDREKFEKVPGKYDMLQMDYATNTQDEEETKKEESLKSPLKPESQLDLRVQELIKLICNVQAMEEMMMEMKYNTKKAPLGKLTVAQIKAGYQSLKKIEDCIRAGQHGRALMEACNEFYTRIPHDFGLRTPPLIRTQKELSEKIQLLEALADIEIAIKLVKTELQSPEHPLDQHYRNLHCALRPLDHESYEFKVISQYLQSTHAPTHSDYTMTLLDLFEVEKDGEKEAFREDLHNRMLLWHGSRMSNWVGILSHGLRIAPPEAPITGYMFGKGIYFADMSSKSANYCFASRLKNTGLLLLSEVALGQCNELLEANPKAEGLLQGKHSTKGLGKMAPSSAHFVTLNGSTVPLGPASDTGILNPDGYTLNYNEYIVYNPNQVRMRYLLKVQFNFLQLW

How the values were obtained:
Test in all cases: fluorescence polarization
Conditions in all cases: range over all mutants; 5'-phosphate on forward strand; residues 1-583
[1] = target: ARTD2FL E286R (Homo sapiens) (UniProt Q9UGN5)
[2] = target: ARTD2FL N129A (Homo sapiens) (UniProt Q9UGN5)
[3] = target: ARTD2FL E286A (Homo sapiens) (UniProt Q9UGN5)
[4] = target: ARTD2FL Y201F (Homo sapiens) (UniProt Q9UGN5)
[5] = target: ARTD2FL G338A (Homo sapiens) (UniProt Q9UGN5)

Measured: binding result

GACGCAACCCGGAGAACACA (double strand) [DNA-9]
binds: [1] | [2] | [3] | [4] | [5]
